Values quoted from earlier work, collected in patent publication US9624256B2, “Coordination complexes, pharmaceutical solutions comprising coordination complexes, and methods of treating patients” (SYNTHONICS, INC., priority 2004, dated 2017).
Like-named read-outs stand apart in the source and are kept apart here.

How the values were obtained:
[1] = complex with magnesium; cited from earlier work
[2] = complex with zinc; cited from earlier work

Row | Compound | log Keq [1] | log Keq [2]
1 | Nc1ncnc2c1ncn2[C@@H]1O[C@H](COP(=O)(O)O)[C@@H](O)[C@H]1O [adenosine-5′-monophosphoric acid] | 1.80 | –
2 | hydroxypropanoic acid | – | 0.86
3 | NCC(=O)O [glycine] | 1.34 | –
4 | Nc1ncnc2nc[nH]c12 [adenine] | 2.08 | –
5 | Oc1ncnc2nc[nH]c12 [6-hydroxypurine] | 6.65 | –
6 | mercaptopropanoic acid | – | 6.43
